Results of single-concentration screens

Sequences of proteins named here, by UniProt entry; tags and fusion partners are left off.
UniProt I6X8D2, whole entry: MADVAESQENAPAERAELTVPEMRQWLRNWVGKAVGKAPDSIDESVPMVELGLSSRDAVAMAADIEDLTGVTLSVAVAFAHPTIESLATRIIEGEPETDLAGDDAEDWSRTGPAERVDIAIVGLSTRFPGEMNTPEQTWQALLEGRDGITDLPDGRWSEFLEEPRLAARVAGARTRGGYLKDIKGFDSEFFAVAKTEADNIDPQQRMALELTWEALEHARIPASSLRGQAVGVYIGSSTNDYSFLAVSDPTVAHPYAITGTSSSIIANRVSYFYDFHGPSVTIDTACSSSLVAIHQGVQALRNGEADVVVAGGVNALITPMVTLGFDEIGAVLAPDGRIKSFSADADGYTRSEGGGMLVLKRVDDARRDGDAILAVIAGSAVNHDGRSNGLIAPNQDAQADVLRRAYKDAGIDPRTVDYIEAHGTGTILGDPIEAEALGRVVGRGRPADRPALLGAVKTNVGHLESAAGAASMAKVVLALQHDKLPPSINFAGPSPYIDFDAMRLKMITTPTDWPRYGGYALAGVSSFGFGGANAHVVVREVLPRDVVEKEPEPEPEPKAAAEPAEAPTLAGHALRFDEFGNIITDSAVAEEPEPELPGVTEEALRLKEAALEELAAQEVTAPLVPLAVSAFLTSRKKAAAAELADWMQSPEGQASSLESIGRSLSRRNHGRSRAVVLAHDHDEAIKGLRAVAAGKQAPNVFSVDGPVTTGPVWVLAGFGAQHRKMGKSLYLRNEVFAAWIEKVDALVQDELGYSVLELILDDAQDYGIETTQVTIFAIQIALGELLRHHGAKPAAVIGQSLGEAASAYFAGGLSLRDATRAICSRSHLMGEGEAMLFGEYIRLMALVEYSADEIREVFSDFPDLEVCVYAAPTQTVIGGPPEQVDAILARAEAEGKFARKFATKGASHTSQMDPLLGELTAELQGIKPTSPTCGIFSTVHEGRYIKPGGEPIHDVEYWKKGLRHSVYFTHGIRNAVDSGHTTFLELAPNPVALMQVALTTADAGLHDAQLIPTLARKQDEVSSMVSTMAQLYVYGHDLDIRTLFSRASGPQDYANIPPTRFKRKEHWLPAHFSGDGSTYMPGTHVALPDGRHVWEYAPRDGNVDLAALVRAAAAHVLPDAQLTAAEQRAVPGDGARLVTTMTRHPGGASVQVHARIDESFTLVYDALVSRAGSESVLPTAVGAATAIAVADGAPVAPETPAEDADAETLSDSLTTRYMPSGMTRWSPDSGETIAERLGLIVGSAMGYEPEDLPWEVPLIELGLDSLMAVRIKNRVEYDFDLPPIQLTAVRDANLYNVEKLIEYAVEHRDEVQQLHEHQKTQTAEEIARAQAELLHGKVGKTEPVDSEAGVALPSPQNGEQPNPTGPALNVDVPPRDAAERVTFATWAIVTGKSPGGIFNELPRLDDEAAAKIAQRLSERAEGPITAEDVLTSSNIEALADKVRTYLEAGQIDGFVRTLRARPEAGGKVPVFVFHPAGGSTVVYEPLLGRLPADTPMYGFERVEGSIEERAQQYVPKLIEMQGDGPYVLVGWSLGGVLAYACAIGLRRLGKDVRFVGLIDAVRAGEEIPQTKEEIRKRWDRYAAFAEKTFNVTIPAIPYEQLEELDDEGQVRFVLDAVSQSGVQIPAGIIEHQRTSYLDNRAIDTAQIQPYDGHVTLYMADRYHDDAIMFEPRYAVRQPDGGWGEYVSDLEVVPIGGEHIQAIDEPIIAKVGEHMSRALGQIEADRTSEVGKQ

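Enzyme assay of the thioesterase domain of polyketide synthase 13; the read-out is not stated. Target: Polyketide synthase Pks13, Mycobacterium tuberculosis (UniProt I6X8D2). Compounds at 30 µM. The record gives no direction; the compounds picked for IC50 retests had high values, so higher reads as stronger inhibition. About 67,000 compounds were tested under these conditions; 0.46% (about 300) showed 50% or more at least once.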

Each number is a percent effect as filed.
The record does not define 0% and 100%; most values in the screen are far below 50% and negative numbers occur (in some assays of this library far below -100).
The compounds are a random part of those screened.

| SMILES | Percent Effect |
|---|---|
| `CCn1ccnc1CN1CCCN(C(=O)c2cccc(C#N)c2)CC1` | 1.375 |
| `Cc1cccc(C(Nc2nccc(-c3ccc(C)nc3C)n2)C2CC2)n1` (centres undefined) | -5.371 |
| `O=C(Nc1cc(Cl)ccn1)c1nc(N2CCCC2)ncc1Cl` | -19.91 |
| `Cc1ccc(CN2CC[C@@H]3[C@@H](CO[C@H]3CN3CCN(C)CC3)C2)cc1` | -7.143 |
| `O=C(COc1ccc(Cl)cc1)N1CCN(c2cnccn2)CC1` | 6.651 |
| `O=C(C1CC1)N1CCC(c2nc(O)c3c(n2)CN(C2CCCC2)CC3)C1` (centres undefined) | -30.21 |
| `Cn1nccc1C(=O)N1CCC(c2ncc(Cl)cc2S(C)(=O)=O)CC1` | -16.71 |
| `Cc1ccc(C(=O)O)cc1S(=O)(=O)Nc1nn(-c2ccccc2)cc1C` | -11.41 |
| `Cc1noc(CNC2CCCN(Cc3noc(C4CC4)n3)C2)n1` (centres undefined) | -22.47 |
| `CNC(=O)NC(=O)CN1CCCC(Cc2ccccc2OC)C1` (centres undefined) | -11.68 |
| `COCCNc1ccccc1CNC(=O)C1CCCOC1` (centres undefined) | -21.7 |
| `CCNS(=O)(=O)C1CCN(C(=O)c2c(F)cc(F)cc2F)C1` (centres undefined) | -32.96 |
| `Cc1cnn(C2CCCN(C(=O)c3cc(C)sc3C)C2)c1` (centres undefined) | -18.94 |
| `O=S(=O)(c1cccs1)N1Cc2nc(COCC3CC3)oc2C1` | -7.588 |
| `Cc1nn(CC(=O)N2CCN(c3cnccn3)CC2)c(C)c1Cl` | 0.3402 |
| `CN(CC(=O)N1CCCC1Cn1cccn1)Cc1ccccc1` (centres undefined) | -16.66 |
| `Cc1nonc1CN(C)Cc1nc(-c2cccc(F)c2F)oc1C` | 0.5021 |
| `Cn1nc(C#N)c2c1CN(C(=O)c1ccco1)CCC2` | 35.08 |
| `COCC(=O)NCC1Cn2nnc(-c3ccncc3)c2CO1` (centres undefined) | -25.63 |
| `O=C(CN1C=Nc2ccccc2S1(=O)=O)NCc1ccccc1` | -2.377 |
| `CC(C)CC(NC(=O)c1ccco1)c1nc2cccnc2n1C` (centres undefined) | -5.508 |
| `O=S1(=O)[C@@H](c2ccccc2)[C@H](CO)CN1C1CC1` | -82.84 |
| `Cc1cc(=O)c2ccccc2n1CC1CCNC1` (centres undefined) | -4.334 |
| `Cc1ccc(C(=O)N2CCC3(CC2)CC(NC(=O)C(C)C)CO3)cc1` (centres undefined) | -19.84 |
| `COc1cc(N2CCC3(CCCN(C(=O)c4cccnc4)C3)C2)ncn1` (centres undefined) | 8.45 |
| `Cc1cccc(CN2CCc3cc(C(=O)O)c(N(C)C)nc3CC2)n1` | -7.084 |
| `Cc1nc(N2CCN(C(=O)NCc3cscn3)CC2)sc1C` | -9.76 |
| `CNC(=O)CCNC(=O)CCc1c(C)nc2cc(O)nn2c1C` | -3.611 |
| `N#Cc1ccc(Cn2cncn2)c(F)c1` | -11.06 |
| `CN1CC[C@H](c2ccccc2)[C@@H]2[C@H]1CCCCN2C(=O)c1cnccn1` | -48.1 |
| `Cc1ccoc1C(=O)NC1CCN(Cc2ccccc2C#N)CC1` | -23.88 |
| `Cc1nc(C2CCCCN2S(C)(=O)=O)no1` (centres undefined) | 7.574 |
| `Cn1cc(Cl)c(CN2CCCC(Cn3cc(CO)nn3)C2)n1` (centres undefined) | -8.143 |
| `O=C1CCC2(CCCN(C(=O)c3ncc[nH]3)C2)CN1CCc1c[nH]cn1` (centres undefined) | -28.78 |
| `CC1(C)CN(C(=O)c2cnc(CN3CCCC3)s2)CC[C@]1(C)O` | -6.833 |
| `O=C(c1ccnc(-n2ccnc2)c1)N1CCCC(n2cccn2)C1` (centres undefined) | -12.26 |
| `O=C(CNc1cc(-c2ccccc2)nc2ccnn12)NC1CC1` | 9.627 |
| `CC1(C)CC(CN2CCC3(CCC(=O)N(CCO)C3)CC2)CCO1` (centres undefined) | -3.495 |
| `CCOCCNC(=O)Nc1cccc(-c2nccn2C)c1` | -20.94 |
| `N#Cc1ccc(OC2CCN(C(=O)c3ccccc3Cl)CC2)nc1` | -11.07 |
| `CC(=O)c1ccc(C(=O)N2C[C@@H](CN3CCCC3)[C@@H](CO)C2)cc1` | 2.928 |
| `COc1ccc(N2Cc3nc(N)ncc3C2=O)cc1` | -6.728 |
| `Cc1ncccc1O[C@H]1CCN(C(=O)c2cccs2)CC[C@@H]1O` | -34.61 |
| `COc1ccccc1OC1(C(=O)O)CCN(c2ccccn2)CC1` | 4.516 |
| `CCN1CCC2(COCc3c(C)nc(N4CCOCC4)nc32)C1` (centres undefined) | 13.87 |
| `CC(C)CCN1Cc2c(C(=O)O)ncn2-c2ccccc2S1(=O)=O` | 3.588 |
| `O=S(=O)(NC1=NCN(CCc2cccs2)CN1)c1ccc(Cl)cc1` | -8.684 |
| `CC(C)c1nc(C2CCCN(C(=O)c3ccc(N(C)C)nn3)C2)no1` (centres undefined) | -5.64 |
| `CC(C)O[C@H]1CN(Cc2cnc3c(-c4ccccc4)cnn3c2)C[C@@H]1O` | -26.48 |
| `CC(C)(C)OC(=O)NCC1CCN(C(=O)c2cc(Cl)c[nH]2)CC1` | -45.45 |
| `Cc1cn2c(n1)CCC(NC(=O)c1cncnc1C)C2` (centres undefined) | -14.37 |
| `CCN(CC(=O)NC)C(=O)Cc1csc(C(C)C)n1` | -23.06 |
| `O=C(c1ccccc1-c1ccccc1)N1C[C@@H]2CNC[C@]2(C(=O)O)C1` | -23.33 |
| `CCC(CC)NC(=O)c1cccnc1-n1cccn1` | 2.809 |
| `CC(C)N1CCCn2nc(C(=O)NCCc3c[nH]cn3)cc2C1` | -14.03 |
| `CNC(=O)c1cc(-c2ccccc2)nc2ncnn12` | -7.291 |
| `COc1ccc(OC)c2c(C)cc(N(C)Cc3cc(C)on3)nc12` | -12.96 |
| `CCN1CC2(CCN(CCOc3ccc(F)cc3)CC2)CC1=O` | -11.05 |
| `CSc1nccc(N2CCC3(CCCN(Cc4cccc(C)c4)C3)C2)n1` (centres undefined) | -1.014 |
| `Cc1nc(C2CCCN2C(=O)c2cnns2)no1` (centres undefined) | -3.968 |
| `CC(C)(C)c1n[nH]cc1CNC1CCC(O)CC1` (centres undefined) | 14.09 |
| `CS(=O)(=O)c1ccc(NC(=O)NC2(c3cccc(F)c3)CC2)cc1` | -7.509 |
| `O=C(CCc1nnc2ccccn2c1=O)NCc1ccco1` | 20.72 |
| `COc1ccc(C(C)Nc2ncc(C(N)=O)cc2Cl)c(OC)c1` (centres undefined) | -38.78 |

The first 8 entries again:

SMILES	Percent Effect
CCn1ccnc1CN1CCCN(C(=O)c2cccc(C#N)c2)CC1	1.375
Cc1cccc(C(Nc2nccc(-c3ccc(C)nc3C)n2)C2CC2)n1 (centres undefined)	-5.371
O=C(Nc1cc(Cl)ccn1)c1nc(N2CCCC2)ncc1Cl	-19.91
Cc1ccc(CN2CC[C@@H]3[C@@H](CO[C@H]3CN3CCN(C)CC3)C2)cc1	-7.143
O=C(COc1ccc(Cl)cc1)N1CCN(c2cnccn2)CC1	6.651
O=C(C1CC1)N1CCC(c2nc(O)c3c(n2)CN(C2CCCC2)CC3)C1 (centres undefined)	-30.21
Cn1nccc1C(=O)N1CCC(c2ncc(Cl)cc2S(C)(=O)=O)CC1	-16.71
Cc1ccc(C(=O)O)cc1S(=O)(=O)Nc1nn(-c2ccccc2)cc1C	-11.41

Source: ChEMBL document CHEMBL3988442, “University of Dundee, Small-Polar-MMV Screening Library” (2021).